{
  "source": "paper PMC7316729",
  "about": "“The cryo-EM structure of the bacterial flagellum cap complex suggests a molecular mechanism for filament elongation” (Nature Communications, 2020)",
  "binders": {"B1": {"name": "FliD from Campylobacter jejuni, full length (flagellum cap protein) (natural protein)", "chain": "MAFGSLSSLGFGSGVLTQDTIDKLKEAEQKARIDPYTKKIEENTTKQKDLTEIKTKLLSFQTAVSSLADATVFAKRKVVGSISDNPPASLTVNSGVALQSMNINVTQLAQKDVYQSKGLANDGGFVNAQLNGTADLTFFSNGKEYTVTVDKNTTYRDLADKINEASGGEIVAKIVNTGEKGTPYRLTLTSKETGEDSAISFYAGKKDSNGKYQKDINAEKIFDDLGWGLDVSASIDPDKDKKGYGIKDASLHIQTAQNAEFTLDGIKMFRSSNTVTDLGVGMTLTLNKTGEINFDVQQDFEGVTKAMQDLVDAYNDLVTNLNAATDYNSETGTKGTLQGISEVNSIRSSILADLFDSQVVDGTTEDANGNKVNTKVMLSMQDFGLSLNDAGTLSFDSSKFEQKVKEDPDSTESFFSNITKYEDINHTGEVIKTGSLSKYLNSNGGNTNGLEFKPGDFTIVFNNQTYDLSKNSDGTNFKLTGKTEEELLQNLANHINSKGIEGLKVKVESYNQNNVTGFRLNFSGDGSSDFSIKGDANILKELGLSDVNITSKPIEGKGIFSKLKATLQEMTGKDGSITKYDESLTNDIKSLNTSKDSTQAMIDTRYDTMANQWLQYESILNKLNQQLNTVTNMINAANNSNN", "notes": "FliD (flagellar cap protein, HAP2) of Campylobacter jejuni; gene codon-optimised for E. coli, synthesised and sub-cloned into pET28a; printed numbering runs to residue 643 (C-terminus 577-643); The D4 domain was not built in the model 6SIH; also called FliDcj; HAP2; source: E. coli BL21-CodonPlus(DE3)-RIL, purified (Ni-NTA, Superdex 200 SEC)"}},
  "molecular_target": "FliD from Campylobacter jejuni, full length (flagellum cap protein) (C. jejuni) (UniProt Q9PHW6)",
  "experiment": "negative-stain TEM with 2D classification; purified protein on carbon-coated copper grids, 0.75% uranyl formate; ~3500 particles for FliDsm and 2700 for FliDpa, 2D class averages; both purified",
  "note": "No constants are given. Whether binding was seen depends on the method and setting. Some results given as binding are weak or reduced against the parent protein; the word gives no strength. Where a sequence is shown, tags or fusion partners need not be part of it.",
  "data": [
    {"binder": "B1", "values": [
      {"measurement": "binding", "value": "binds"}
    ]}
  ]
}
